At least one read-out could not be matched to a standard name with certainty.
System: mouse L 1210 leukemia
Assay: L1210 leukemia in mice: inoculum of 10^5 cells, single dose of compound 24 hours later
Assay type: in vivo
Settings: inoculum 10^5 L1210 cells
From the text: The experimental tumor mouse L 1210 leukemia is commonly used to evaluate the effects of all the antitumor compounds now used in human therapeutics,as was described, for example, by C. C. ZUBROD in Proc. Nat. Acad. Sci. USA 69, 1972, pp. 1042-1047. This experimentally formed tumoral system permits very accurate quantitative evaluation of the activity of the compound tested and also, consequently, an objective comparison of the respective activities of various compounds, for example, according to the methods described by H. E. SKIPPER, F. M. SCHABEL Jr. and W. S. WILCOX in Cancer Chemiother. Rep. 1964, pp. 1-111 and 45, 1965, pp. 5-28.
The mice were randomized in each experimental series. A first routine experiment enable the death rate by toxicity to be determined and thus established the sublethal doses.
According to the convention in force in this field, the animals which survived longer than 45 days after inoculation of tumoral cells were considered to be cured.
To evaluate the therapeutic activity of the compounds of the invention, doses of said compound were expressed basing them on the 30 days sublethal dose which was fixed at 1.
A--A tumoral inoculum of 10^5 L1210 leukemia cells was administered by the intraperitoneal way to twenty 2 to 3 months old DBA/2 strain female mice. 24 hours later, half of said mice received a single intraperitoneal injection of a variable dose of the compound to be tested and the same volume of solvent was administered to the other half of the mice by the same way; this latter half of the group of mice was therefore used as the control series. The mice were randomized in each experimental series.
Animals surviving for longer than 45 days were considered to be cured.

[1] = I.P., dose 0.1 of the sublethal dose
[2] = I.P., dose 0.2 of the sublethal dose
[3] = I.P., dose 0.6 of the sublethal dose
[4] = I.V., dose 1 (the sublethal dose)
[5] = I.P., dose 0.01 of the sublethal dose
[6] = I.P., dose 0.02 of the sublethal dose
[7] = I.P., dose 0.05 of the sublethal dose
[8] = I.P., dose 1 (the sublethal dose)

SMILES	Mean survival in days for treated mice [1]	Mean survival in days for treated mice [2]	Mean survival in days for treated mice [3]	Mean survival in days for treated mice [4]	Mean survival in days for treated mice (I.P., dose 0.002 of the sublethal dose)	Mean survival in days for treated mice [5]	Mean survival in days for treated mice [6]	Mean survival in days for treated mice [7]	Mean survival in days for treated mice (I.P., dose 0.4 of the sublethal dose)	Mean survival in days for treated mice [8]	Mean survival in days for treated mice (I.V., dose 0.33 of the sublethal dose)	Mean survival in days for treated mice (I.P., dose 0.005 of the sublethal dose)	Mean survival in days for treated mice (I.P., dose 0.3 of the sublethal dose)
CC[n+]1ccc2c(C)c3c(c(C)c2c1)c1cc(O)ccc1n3C [9-hydroxy-6-methyl-2-ethyl-ellipticinium acetate]	10.3 days	14.4 days	16.4 days	9.75 days	–	–	–	–	–	–	–	–	–
CC[n+]1ccc2c(C)c3[nH]c4ccc(O)cc4c3c(C)c2c1 [9-hydroxy-2-ethyl ellipticinium acetate, 9-hydroxy-2-ethyl-ellipticinium acetate]	14.7 days	22 ± 4.7 days	18.9 days	12.5 days	11.45 days	12.3 days	12.7 days	12.7 days	16.6 days	15.80 days	11.9 days	–	–
CC[n+]1ccc2c(C)c3[nH]c4ccc(OC(C)=O)cc4c3c(C)c2c1 [9-acetoxy-2-ethyl-ellipticinium acetate]	14.6 days	–	17.8 days	–	–	12.2 days	12.5 days	–	–	–	–	10.4 days	16.7 days
Cc1c2c[n+](C)ccc2c(C)c2c1c1cc(O)ccc1n2C [9-hydroxy-2,6-dimethyl-ellipticinium acetate]	14.0 ± 0.5 days	13.4 ± 0.6 days	–	–	–	10.3 ± 0.4 days	10.4 ± 0.4 days	12.7 ± 0.6 days	–	16.1 ± 0.8 days	–	–	–

— patent US4483989A, “Synthesis of pyrido[4,3-b]carbazole derivatives” (priority 1973, dated 1984)
